Laboratory results: PubChem BioAssay AID1159584 (Peter MacCallum Cancer Centre, 2016)
Shown is a random part of about 18,000 deposited reagents. Further read-outs or replicates are left out here. Not given: the amount of reagent, the time to read-out.

Test: 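Genes that CDH1-null MCF10A cells selectively depend on to survive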 (primary screen)
Cell system: human MCF10A breast epithelial cells, parental and CDH1-null
Reagent: siRNA against human genes
Measurement: 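ATP luminescence (CellTiter-Glo) viability per line relative to mean mock wells over all plates, and the ratio of CDH1-null to parental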
Scale: CDH1-null / parental viability ratio: higher = CDH1-null cells survive relatively better than parental

AP1AR
- CDH1-null / parental viability ratio: 0.96

KRTAP4-5
- CDH1-null / parental viability ratio: 1.01

PEX19
- CDH1-null / parental viability ratio: 0.88

ASB2
- CDH1-null / parental viability ratio: 1

ZSCAN26
- CDH1-null / parental viability ratio: 1.07

C9orf43
- CDH1-null / parental viability ratio: 0.8

SP5
- CDH1-null / parental viability ratio: 0.93

OR6C6
- CDH1-null / parental viability ratio: 0.85

ARHGAP30
- CDH1-null / parental viability ratio: 0.84

C1orf35
- CDH1-null / parental viability ratio: 1.17

C5
- CDH1-null / parental viability ratio: 0.96

ARHGEF39
- CDH1-null / parental viability ratio: 0.82

KDM4A
- CDH1-null / parental viability ratio: 0.85

TANGO2
- CDH1-null / parental viability ratio: 0.64

ZNF681
- CDH1-null / parental viability ratio: 1.03

ECI1
- CDH1-null / parental viability ratio: 0.89

Ordered by “CDH1-null / parental viability ratio” (descending): 3 of the entries above
SP5
- CDH1-null / parental viability ratio: 0.93

OR6C6
- CDH1-null / parental viability ratio: 0.85

ARHGAP30
- CDH1-null / parental viability ratio: 0.84

The listing continues:
RPS6KA6
- CDH1-null / parental viability ratio: 0.94

SREBF1
- CDH1-null / parental viability ratio: 1.05

ROMO1
- CDH1-null / parental viability ratio: 0.88

OR10Z1
- CDH1-null / parental viability ratio: 1.07

KRT6A
- CDH1-null / parental viability ratio: 1.22

PLXND1
- CDH1-null / parental viability ratio: 0.98

WDR55
- CDH1-null / parental viability ratio: 1

ABCB7
- CDH1-null / parental viability ratio: 1.06

AGO2
- CDH1-null / parental viability ratio: 1

RGS9BP
- CDH1-null / parental viability ratio: 0.99

HPS4
- CDH1-null / parental viability ratio: 1.07

CCL25
- CDH1-null / parental viability ratio: 1.15

TULP2
- CDH1-null / parental viability ratio: 0.93

KDM4C
- CDH1-null / parental viability ratio: 0.88

BAALC
- CDH1-null / parental viability ratio: 1.07

EIF4B
- CDH1-null / parental viability ratio: 0.95

TMEM125
- CDH1-null / parental viability ratio: 1.47

MACROH2A2
- CDH1-null / parental viability ratio: 1.02

TMEM184C
- CDH1-null / parental viability ratio: 0.97
